Test results reported in patent US20250107528A1, “PYRAZINE COMPOUNDS FOR THE CONTROL OF INVERTEBRATE PESTS” (BASF SE, priority 2021, published 2025).
Some entries share one result that the patent states for a list of compounds.

Tests used:
Format in all cases: in vivo
Aedes aegypti = settings: 2500 ppm; larval mortality; 2 days
Procedure: B.5 Yellow Fever Mosquito (Aedes aegypti)
For evaluating control of yellow fever mosquito (Aedes aegypti) the test unit consisted of 96-well-microtiter plates containing 200 μl of tap water per well and 5-15 freshly hatched A. aegypti larvae.
The active compounds were formulated using a solution containing 75% (v/v) water and 25% (v/v) DMSO. Different concentrations of formulated compounds or mixtures were sprayed onto the insect diet at 2.5 μl, using a custom-built micro atomizer, at two replications.
After application, microtiter plates were incubated at 28±1° C., 80±5% RH for 2 days. Larval mortality was then visually assessed.

Anthonomus grandis = experiment: Boll weevil (Anthonomus grandis) egg/larval test on insect diet in 96-well microtiter plates; settings: 2500 ppm; egg and larval mortality; 5 days
Procedure: B.3 Boll Weevil (Anthonomus grandis)
For evaluating control of boll weevil (Anthonomus grandis), the test unit consisted of 96-well-microtiter plates containing an insect diet and 5-10 A. grandis eggs.
The compounds were formulated using a solution containing 75% v/v water and 25% v/v DMSO. Different concentrations of formulated compounds were sprayed onto the insect diet at 5 μl, using a custom-built micro atomizer, at two replications.
After application, microtiter plates were incubated at about 25±1° C. and about 75±5% relative humidity for 5 days. Egg and larval mortality was then visually assessed.

Spodoptera eridania = experiment: Southern armyworm (Spodoptera eridania), 2nd instar larvae, foliar spray on lima bean plants; settings: 300 ppm; 2nd instar larvae on sprayed lima bean; 4 days after treatment
Procedure: B.4. Southern Armyworm (Spodoptera eridania), 2nd Instar Larvae
The active compounds were formulated by a Tecan liquid handler in 100% cyclohexanone as a 10,000-ppm solution supplied in tubes. The 10,000-ppm solution was serially diluted in 100% cyclohexanone to make interim solutions. These served as stock solutions for which final dilutions were made by the Tecan in 50% acetone:50% water (v/v) into 10 or 20 ml glass vials. A non-ionic surfactant (Kinetic®) was included in the solution at a volume of 0.01% (v/v). The vials were then inserted into an automated electrostatic sprayer equipped with an atomizing nozzle for application to plants/insects. Lima bean plants (variety Sieva) were grown 2 plants to a pot and selected for treatment at the 1st true leaf stage. Test solutions were sprayed onto the foliage by an auto-mated electrostatic plant sprayer equipped with an atomizing spray nozzle. The plants were dried in the sprayer fume hood and then removed from the sprayer. Each pot was placed into perforated plastic bags with a zip closure. Ten to 11 armyworm larvae were placed into the bag and the bags zipped closed. Test plants were maintained in a growth room at about 25° C. and about 20-40% relative humidity for 4 days, avoiding direct exposure to fluorescent light (14:10 light:dark photoperiod) to prevent trapping of heat inside the bags. Mortality and reduced feeding were assessed 4 days after treatment, compared to untreated control plants.

| SMILES | mortality in comparison with untreated controls (Aedes aegypti) | mortality in comparison with untreated controls (Anthonomus grandis) | mortality in comparison with untreated controls (Spodoptera eridania) |
| --- | --- | --- | --- |
| CC(c1nccnc1C(N)=NO)N(CC1CC1)C(=O)c1cc(C(F)(F)F)cc(C(F)(F)F)c1 (centres unmarked) [I-2] | at least 75% | – | – |
| CC(ON=Cc1nccnc1C(C)NC(=O)c1cc(C(F)(F)F)cc(C(F)(F)F)c1)Oc1ccccc1F (centres unmarked) [I-25] | at least 75% | – | – |
| CC(NC(=O)c1cc(C(F)(F)F)cc(C(F)(F)F)c1)c1nccnc1C=NOCC(N)=O (centres unmarked) [I-26] | at least 75% | – | – |
| CNC(=NO)c1nccnc1C(C)N(C)C(=O)c1cc(C(F)(F)F)cc(C(F)(F)F)c1 (centres unmarked) [I-34] | – | at least 75% | – |
| CC(NC(=O)c1cc(C(F)(F)F)cc(C(F)(F)F)c1)c1nccnc1C=NNC(=O)Nc1cccc2ccccc12 (centres unmarked) [I-38] | at least 75% | – | – |
| CC(NC(=O)c1cc(C(F)(F)F)cc(C(F)(F)F)c1)c1nccnc1C=NNC(=O)Nc1ccccn1 (centres unmarked) [I-39] | at least 75% | at least 75% | – |
| CC(NC(=O)c1cc(C(F)(F)F)cc(C(F)(F)F)c1)c1nccnc1C=NNC(=O)NCc1ccccc1 (centres unmarked) [I-40] | at least 75% | at least 75% | – |
| CC(NC(=O)c1cc(C(F)(F)F)cc(C(F)(F)F)c1)c1nccnc1C=NNC(=O)NCCc1cccs1 (centres unmarked) [I-44] | at least 75% | – | – |
| CC(C)NC(=O)NN=Cc1nccnc1C(C)NC(=O)c1cc(C(F)(F)F)cc(C(F)(F)F)c1 (centres unmarked) [I-48] | at least 75% | at least 75% | – |
| CC(NC(=O)c1cc(C(F)(F)F)cc(C(F)(F)F)c1)c1nccnc1C=NNC(=O)NCC(F)(F)F (centres unmarked) [I-49] | at least 75% | – | – |
| CC(NC(=O)c1cc(C(F)(F)F)cc(C(F)(F)F)c1)c1nccnc1C=NN(C(=O)N(C)C)c1ccc(F)c(Cl)c1 (centres unmarked) [I-51] | at least 75% | – | – |
| CC(=NNC(=O)Nc1ccc(Br)cc1)c1nccnc1C(C)NC(=O)c1cc(C(F)(F)F)cc(C(F)(F)F)c1 (centres unmarked) [I-55] | at least 75% | – | – |
| CC(=NNC(=O)Nc1ccc(Cl)cc1)c1nccnc1C(C)NC(=O)c1cc(C(F)(F)F)cc(C(F)(F)F)c1 (centres unmarked) [I-56] | at least 75% | – | – |
| CC(=NNC(=O)NCC(F)F)c1nccnc1C(C)NC(=O)c1cc(C(F)(F)F)cc(C(F)(F)F)c1 (centres unmarked) [I-58] | – | at least 75% | – |
| CC(=NNC(=O)NC1CCN(C(=O)OC(C)(C)C)CC1)c1nccnc1C(C)NC(=O)c1cc(C(F)(F)F)cc(C(F)(F)F)c1 (centres unmarked) [I-59] | at least 75% | at least 75% | – |
| CC(=NNC(=O)NC1CCCS1(=O)=O)c1nccnc1C(C)NC(=O)c1cc(C(F)(F)F)cc(C(F)(F)F)c1 (centres unmarked) [I-60] | – | at least 75% | – |
| CC(=NNC(=O)Nc1ccncc1)c1nccnc1C(C)NC(=O)c1cc(C(F)(F)F)cc(C(F)(F)F)c1 (centres unmarked) [I-62] | at least 75% | – | – |
| CC(=NNC(=O)NC1CCCCC1)c1nccnc1C(C)NC(=O)c1cc(C(F)(F)F)cc(C(F)(F)F)c1 (centres unmarked) [I-69] | at least 75% | – | – |
| COc1ccc(NC(=O)NN=C(C)c2nccnc2C(C)NC(=O)c2cc(C(F)(F)F)cc(C(F)(F)F)c2)cc1 (centres unmarked) [I-70] | at least 75% | – | – |
| CC(=NOCC(O)CN1CCCCC1)c1nccnc1C(C)NC(=O)c1cc(C(F)(F)F)cc(C(F)(F)F)c1 (centres unmarked) [I-74] | at least 75% | at least 75% | – |
| COC(=O)C(Cc1ccccc1)ON=C(C)c1nccnc1C(C)NC(=O)c1cc(C(F)(F)F)cc(C(F)(F)F)c1 (centres unmarked) [I-79] | at least 75% | – | – |
| CC(=NNC(=O)NCc1ccncc1)c1nccnc1C(C)NC(=O)c1cc(C(F)(F)F)cc(C(F)(F)F)c1 (centres unmarked) [I-85] | at least 75% | at least 75% | – |
| CC(=NNC(=O)NCC(=O)NC1CC1)c1nccnc1C(C)NC(=O)c1cc(C(F)(F)F)cc(C(F)(F)F)c1 (centres unmarked) [I-88] | – | at least 75% | – |
| CC(=NNC(=O)NCc1ccnc(Cl)c1)c1nccnc1C(C)NC(=O)c1cc(C(F)(F)F)cc(C(F)(F)F)c1 (centres unmarked) [I-94] | at least 75% | – | – |
| CC(=NNC(=O)NCC=Cc1ccc(Cl)cc1)c1nccnc1C(C)NC(=O)c1cc(C(F)(F)F)cc(C(F)(F)F)c1 (centres unmarked) [I-97] | at least 75% | – | – |

| SMILES | mortality in comparison with untreated controls (Aedes aegypti) | mortality in comparison with untreated controls (Anthonomus grandis) | mortality in comparison with untreated controls (Spodoptera eridania) |
| --- | --- | --- | --- |
| CC(NC(=O)c1cc(C(F)(F)F)cc(C(F)(F)F)c1)c1nccnc1C=NOCCC1CC1 (centres unmarked) [I-106] | – | – | at least 75% |
| CC(NC(=O)c1cc(C(F)(F)F)cc(C(F)(F)F)c1)c1nccnc1C=NOCc1cccc(C(F)(F)F)c1F (centres unmarked) [I-108] | – | at least 75% | – |
| CC(NC(=O)c1cc(C(F)(F)F)cc(C(F)(F)F)c1)c1nccnc1C=NNC(=O)NC1CSC1 (centres unmarked) [I-117] | at least 75% | at least 75% | – |
| CC(NC(=O)c1cc(C(F)(F)F)cc(C(F)(F)F)c1)c1nccnc1C=NN(C(=O)Nc1ccccc1)C(C)C (centres unmarked) [I-118] | at least 75% | at least 75% | – |
| CC(NC(=O)c1cc(C(F)(F)F)cc(C(F)(F)F)c1)c1nccnc1C=NN1CCCN(C)C1=O (centres unmarked) [I-119] | at least 75% | – | – |
| CC(NC(=O)c1cc(C(F)(F)F)cc(C(F)(F)F)c1)c1nccnc1C=NNC(=O)NCC=C(Cl)Cl (centres unmarked) [I-124] | at least 75% | – | – |
| CC(CON=Cc1nccnc1C(C)NC(=O)c1cc(C(F)(F)F)cc(C(F)(F)F)c1)Oc1cccc(Cl)c1 (centres unmarked) [I-139] | – | – | at least 75% |
| CC(C#N)ON=Cc1nccnc1C(C)NC(=O)c1cc(C(F)(F)F)cc(C(F)(F)F)c1 (centres unmarked) [I-140] | at least 75% | – | – |
| CC(CON=Cc1nccnc1C(C)NC(=O)c1cc(C(F)(F)F)cc(C(F)(F)F)c1)c1ccccc1 (centres unmarked) [I-142] | – | at least 75% | – |
| CC(NC(=O)c1cc(C(F)(F)F)cc(C(F)(F)F)c1)c1nccnc1C=NOCc1cccnc1 (centres unmarked) [I-144] | at least 75% | – | – |
| COc1ccc(CON=Cc2nccnc2C(C)NC(=O)c2cc(C(F)(F)F)cc(C(F)(F)F)c2)cc1 (centres unmarked) [I-147] | – | at least 75% | – |
| CC(=NOC(C)c1cc(C)ccc1C)c1nccnc1C(C)NC(=O)c1cc(C(F)(F)F)cc(C(F)(F)F)c1 (centres unmarked) [I-153] | at least 75% | – | – |
| CC(=NOC(C)c1ccccc1C(F)(F)F)c1nccnc1C(C)NC(=O)c1cc(C(F)(F)F)cc(C(F)(F)F)c1 (centres unmarked) [I-154] | at least 75% | – | – |
| CC(=NOCC(C)O)c1nccnc1C(C)NC(=O)c1cc(C(F)(F)F)cc(C(F)(F)F)c1 (centres unmarked) [I-156] | – | – | at least 75% |
| CC(=NOCc1cccc2ccccc12)c1nccnc1C(C)NC(=O)c1cc(C(F)(F)F)cc(C(F)(F)F)c1 (centres unmarked) [I-160] | at least 75% | at least 75% | – |
| CC(=NOc1ccccc1)c1nccnc1C(C)NC(=O)c1cc(C(F)(F)F)cc(C(F)(F)F)c1 (centres unmarked) [I-161] | at least 75% | – | – |
| CC(=NOCCCOc1cccc(F)c1)c1nccnc1C(C)NC(=O)c1cc(C(F)(F)F)cc(C(F)(F)F)c1 (centres unmarked) [I-162] | – | at least 75% | – |
| CCC(CON=C(C)c1nccnc1C(C)NC(=O)c1cc(C(F)(F)F)cc(C(F)(F)F)c1)Oc1ccc(F)cc1 (centres unmarked) [I-163] | at least 75% | – | – |
| CON=C(N)c1nccnc1C(C)NC(=O)c1cc(Cl)c(F)c(Cl)c1 (centres unmarked) [I-179] | – | at least 75% | – |
| CON=C(N)c1nccnc1C(C)NC(=O)c1cc(Br)cc(C(C)C)c1 (centres unmarked) [I-183] | at least 75% | at least 75% | – |
| CON=C(N)c1nccnc1C(C)NC(=O)c1cc(Br)cc(OC(C)C)c1 (centres unmarked) [I-184] | – | at least 75% | – |
| CON=C(N)c1nccnc1C(C)NC(=O)c1cccc(Sc2cc(Cl)cc(C(F)(F)F)c2)c1 (centres unmarked) [I-186] | at least 75% | – | – |
| CON=C(N)c1nccnc1C(C)NC(=O)c1cccc(Oc2cc(Cl)cc(C(F)(F)F)c2)c1 (centres unmarked) [I-187] | at least 75% | – | – |
| CON=C(N)c1nccnc1C(C)NC(=O)c1cccc(SC(F)(F)F)c1 (centres unmarked) [I-188] | – | at least 75% | – |
